Data from patent US20260174875A1 (Novo Nordisk A/S, priority 2023, published 2026).
At least one compound was matched to its structure with a doubt left. Numbered stars: 1 amine (or outer) side, 2 acyl side, 3 side chain; on linkers, the order of the positions; unused ones are H or OH. Square brackets hold non-standard residues; d marks the D form. Side chains are listed from the residue outwards. * marks the point of attachment. C18 diacid = O=C(O)CCCCCCCCCCCCCCCCC(=O)*; γGlu = O=C(O)[C@H](CCC(=O)[*:2])N[*:1]; AEEA = NCCOCCOCC(=O)O; Aib = CC(C)(N)C(=O)O

Assays:
[1] = system: Male Sprague Dawley (SD) rats; assay: Efficacy testing on appetite: acute food intake in ad libitum fed normal weight rats; type: in vivo, rat; details: single dose 10 nmol/kg; for Food intake (relative to vehicle) Day 1: day 1 [0-24 hours]; for Food intake (relative to vehicle) Day 2: day 2 [24-48 hours]; for Food intake (relative to vehicle) Day 3: day 3 [48-72 hours]
Source text: Male Sprague Dawley (SD) rats from Taconic, Denmark were used for the acute food intake experiments, wherein the principles of laboratory animal care were followed.
The rats arrived at least 10-14 days before the start of the experiment to allow acclimatization to experimental settings. During this period, the animals were handled (fixation by restrain in neck skin) at least 2 times. Immediately upon arrival, rats were changed to a reversed light cycle (dark from 11 am-11 pm) and were transferred to an automated food intake measuring system (HM2 system, MBRose; Faaborg, Denmark). […] To enable recording of individual food intake, rats were ID chipped. Three rats were housed in each cage. During the acclimatization period, in which the rats get used to the new light cycle and diet (LF 10% (D12450B), from Research Diets Inc.), the animals had free access to food and water. Since rats are normally active and consume most of their daily calories during the dark period, rats were dosed in the morning right before lights were turned off. Such a set-up results in the lowest data variation and highest test sensitivity. […] In each cage there were animals from three different treatment groups (to eliminate potential cage effects (e.g. cage malfunction) on primary readout: food intake). The rats were dosed once subcutaneously (s.c.) with the peptide of interest according to body weight (10 or 30 nmol/kg) in vehicle (0.5 ml/kg) using a NovoPen® (Novo Nordisk, Bagsvæed, Denmark).
The compounds of the invention were formulated (20 or 60 nmol/ml) in the following vehicle: 8 mM phosphate; 250 mM glycerol; 0.007% polysorbate 20, pH 7.4.
After dosing, the rats were returned to their home cages, where they continued to have ad libitum access to chow and water. The food consumption was recorded individually and continuously by the HM2 system from 0-72 h after test compound administration. Data obtained by the HM-2 system were stored in a HMBase SQL database (Firebird® relational database management system) and were processed by HM2Lab software (MBRose; Faaborg, Denmark) installed in an embedded computer. The feeding system is a highly sensitive system with a load resolution of 0.001 g.

[2] = Chemical stability assessment in formulation (UPLC-UV-MS purity loss at 37° C.); type: physicochemical; details: 8 mM phosphate buffer pH 7.4, 1 mg/mL, 2 weeks
Procedure: The assay was performed to investigate the extend of chemical degradation in vitro over time upon incubation at 37° C. for a period of 2 weeks.
Peptide solutions were prepared by dissolving freeze-dried powder in 8 mM phosphate buffer pH 7.4 to a target of 1 mg/mL. The pH of peptide solutions was adjusted to 7.4 with 0.02 M HCl or 0.02 M NaOH. Samples were filled in Agilent HPLC vials with fixed insert. Vials were capped to prevent evaporation. The HPLC vials were incubated at 37° C. and samples were withdrawn at different time points over a period of 2 weeks, flash frozen at −80° C., and stored at −20° C. until analysis.
A flow-rate of 100 μL/min was delivered with a Binary solvent manager pump having 0.1% formic acid in water as solvent A and 0.1% formic acid in acetonitrile as solvent B. Gradient elution was carried out using 20% B from 0 to 2 min followed by 20 to 50% B from 2 to 20 min in a total run time of 30 min.

[3] = system: diet-induced obese (DIO) rats; assay: Sub-chronic treatment in diet-induced obese (DIO) rats; type: in vivo, rat; details: for Absolute body weight Day 0 / Cumulative food intake Day 28 / Absolute body weight Day 28 / body weight at day 28 compared to day 0: DIO rats; for Absolute body weight Day 0: day 0 (baseline); for Absolute body weight Day 0 / body weight at day 28 compared to day 0: means ± SEM; for Cumulative food intake Day 28: day 0-28, means ± SEM, n = 6-8; for Absolute body weight Day 28: day 28, means ± SEM
[4] = s.c. once daily, titrated to 3 nmol/kg
[5] = s.c. once daily, titrated to 10 nmol/kg

| Substance | Food intake (relative to vehicle) Day 1 [1] | Food intake (relative to vehicle) Day 2 [1] | Food intake (relative to vehicle) Day 3 [1] | Purity loss per week at 37° C. [2] | Absolute body weight Day 0 ([3]; 3 nmol/kg group) | Absolute body weight Day 0 ([3]; 10 nmol/kg group) | Cumulative food intake Day 28 [3, 4] | Absolute body weight Day 28 [3, 4] | body weight at day 28 compared to day 0 [3, 4] | Cumulative food intake Day 28 [3, 5] | Absolute body weight Day 28 [3, 5] | body weight at day 28 compared to day 0 [3, 5] | body weight in DIO rats (absolute and relative) ([3]; s.c. once daily, 28 days, 3 or 10 nmol/kg after titration) | food intake in DIO rats ([3]; s.c. once daily, 28 days, 3 or 10 nmol/kg after titration, vs vehicle) |
| --- | --- | --- | --- | --- | --- | --- | --- | --- | --- | --- | --- | --- | --- | --- |
| Y[Aib]EGTFTSDYSILLEEQAAREFIEWLLAGGPSSGAGQAPGQAPGASHLSTAQTQRLSAELHK([AEEA-AEEA-γGlu-C18 diacid])LATLPRTETGSGSP-NH2 [compound 52] | −80% | −93% | −35% | 0.9% | 949 ± 32.7 g | 940 ± 32.6 g | 1696 ± 92.90 kcal | 836 ± 32.3 g | 87.8 ± 0.61% | 1028 ± 99.45 kcal | 742 ± 29.1 g | 78.9 ± 0.97% | induced a reduction in body weight in absolute and relative manner | induced a reduction in food intake |
| Y[Aib]EGTFTSDYSILLEEQAAREFIEWLLAGGPSRGEASHLSTAQTQRLSAELHK([AEEA-AEEA-γGlu-C18 diacid])LATLPRTETGSGSP-NH2 [compound 68] | −65% | −72% | −35% |  |  |  |  |  |  |  |  |  |  |  |
| Y[Aib]EGTFTSDYSILLEEQAAREFIEWLLAGGPSSGAGQAPGQAPLASHLSTAQTQRLSAELHK([AEEA-AEEA-γGlu-C18 diacid])LATLPRTETGSGSP-NH2 [compound 58] | −71% | −90% | −18% | 0.3% |  |  |  |  |  |  |  |  |  |  |
| Y[Aib]EGTFTSDYSILLEEQAAREFIEWLLAGGPSSGAGQAPGQAPGASHLSTAQTQRLSAK([AEEA-AEEA-γGlu-C18 diacid])LHRLATLPRTETGSGSP-NH2 [compound 55] | −85% | −78% | −27% | 0.9% |  |  |  |  |  |  |  |  |  |  |
| H[Aib]HGTFTSDYSILLEEQAAREFIEWLLAGGPSK([AEEA-AEEA-γGlu-C18 diacid])GAPPPSGGGEASHLSTAQTARLSAELHQLATLPRTETGSGSP-NH2 [compound 101] | −76% | −92% | −63% |  |  |  |  |  |  |  |  |  |  |  |
